# The supplement of paper PMC10032668
# Chains of the proteins cited; added tags and fusions are not shown.
# CBX2, Q14781, UniProt Q14781, whole entry: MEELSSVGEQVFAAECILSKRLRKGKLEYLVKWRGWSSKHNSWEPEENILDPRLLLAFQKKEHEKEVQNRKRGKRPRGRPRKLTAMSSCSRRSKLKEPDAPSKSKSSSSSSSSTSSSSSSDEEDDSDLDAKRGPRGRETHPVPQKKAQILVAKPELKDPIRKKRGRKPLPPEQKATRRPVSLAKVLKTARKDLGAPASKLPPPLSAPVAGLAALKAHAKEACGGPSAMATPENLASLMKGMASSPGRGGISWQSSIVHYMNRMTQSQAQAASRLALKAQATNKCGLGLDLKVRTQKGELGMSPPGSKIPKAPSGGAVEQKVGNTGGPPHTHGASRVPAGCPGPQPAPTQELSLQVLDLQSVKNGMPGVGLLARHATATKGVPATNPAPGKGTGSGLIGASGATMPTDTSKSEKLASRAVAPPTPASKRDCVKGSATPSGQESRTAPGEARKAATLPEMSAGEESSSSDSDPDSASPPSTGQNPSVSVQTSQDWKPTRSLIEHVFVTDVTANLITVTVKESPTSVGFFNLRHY
# CNOT2, Q9NZN8, UniProt Q9NZN8, whole entry: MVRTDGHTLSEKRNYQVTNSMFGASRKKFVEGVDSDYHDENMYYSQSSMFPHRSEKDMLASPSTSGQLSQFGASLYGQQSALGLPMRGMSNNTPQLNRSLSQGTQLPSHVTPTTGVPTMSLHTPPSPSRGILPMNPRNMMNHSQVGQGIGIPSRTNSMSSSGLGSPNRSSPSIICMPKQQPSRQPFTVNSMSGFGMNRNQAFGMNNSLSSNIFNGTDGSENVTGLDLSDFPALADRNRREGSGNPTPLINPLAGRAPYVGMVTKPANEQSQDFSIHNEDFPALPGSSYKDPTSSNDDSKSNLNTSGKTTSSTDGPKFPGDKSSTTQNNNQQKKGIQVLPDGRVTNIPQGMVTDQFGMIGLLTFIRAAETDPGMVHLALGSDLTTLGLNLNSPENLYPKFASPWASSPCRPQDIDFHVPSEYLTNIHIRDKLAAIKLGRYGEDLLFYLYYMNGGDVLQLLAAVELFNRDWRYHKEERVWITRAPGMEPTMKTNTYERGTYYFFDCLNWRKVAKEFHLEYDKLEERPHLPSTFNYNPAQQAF
# MYO5A, Q9Y4I1, UniProt Q9Y4I1, whole entry: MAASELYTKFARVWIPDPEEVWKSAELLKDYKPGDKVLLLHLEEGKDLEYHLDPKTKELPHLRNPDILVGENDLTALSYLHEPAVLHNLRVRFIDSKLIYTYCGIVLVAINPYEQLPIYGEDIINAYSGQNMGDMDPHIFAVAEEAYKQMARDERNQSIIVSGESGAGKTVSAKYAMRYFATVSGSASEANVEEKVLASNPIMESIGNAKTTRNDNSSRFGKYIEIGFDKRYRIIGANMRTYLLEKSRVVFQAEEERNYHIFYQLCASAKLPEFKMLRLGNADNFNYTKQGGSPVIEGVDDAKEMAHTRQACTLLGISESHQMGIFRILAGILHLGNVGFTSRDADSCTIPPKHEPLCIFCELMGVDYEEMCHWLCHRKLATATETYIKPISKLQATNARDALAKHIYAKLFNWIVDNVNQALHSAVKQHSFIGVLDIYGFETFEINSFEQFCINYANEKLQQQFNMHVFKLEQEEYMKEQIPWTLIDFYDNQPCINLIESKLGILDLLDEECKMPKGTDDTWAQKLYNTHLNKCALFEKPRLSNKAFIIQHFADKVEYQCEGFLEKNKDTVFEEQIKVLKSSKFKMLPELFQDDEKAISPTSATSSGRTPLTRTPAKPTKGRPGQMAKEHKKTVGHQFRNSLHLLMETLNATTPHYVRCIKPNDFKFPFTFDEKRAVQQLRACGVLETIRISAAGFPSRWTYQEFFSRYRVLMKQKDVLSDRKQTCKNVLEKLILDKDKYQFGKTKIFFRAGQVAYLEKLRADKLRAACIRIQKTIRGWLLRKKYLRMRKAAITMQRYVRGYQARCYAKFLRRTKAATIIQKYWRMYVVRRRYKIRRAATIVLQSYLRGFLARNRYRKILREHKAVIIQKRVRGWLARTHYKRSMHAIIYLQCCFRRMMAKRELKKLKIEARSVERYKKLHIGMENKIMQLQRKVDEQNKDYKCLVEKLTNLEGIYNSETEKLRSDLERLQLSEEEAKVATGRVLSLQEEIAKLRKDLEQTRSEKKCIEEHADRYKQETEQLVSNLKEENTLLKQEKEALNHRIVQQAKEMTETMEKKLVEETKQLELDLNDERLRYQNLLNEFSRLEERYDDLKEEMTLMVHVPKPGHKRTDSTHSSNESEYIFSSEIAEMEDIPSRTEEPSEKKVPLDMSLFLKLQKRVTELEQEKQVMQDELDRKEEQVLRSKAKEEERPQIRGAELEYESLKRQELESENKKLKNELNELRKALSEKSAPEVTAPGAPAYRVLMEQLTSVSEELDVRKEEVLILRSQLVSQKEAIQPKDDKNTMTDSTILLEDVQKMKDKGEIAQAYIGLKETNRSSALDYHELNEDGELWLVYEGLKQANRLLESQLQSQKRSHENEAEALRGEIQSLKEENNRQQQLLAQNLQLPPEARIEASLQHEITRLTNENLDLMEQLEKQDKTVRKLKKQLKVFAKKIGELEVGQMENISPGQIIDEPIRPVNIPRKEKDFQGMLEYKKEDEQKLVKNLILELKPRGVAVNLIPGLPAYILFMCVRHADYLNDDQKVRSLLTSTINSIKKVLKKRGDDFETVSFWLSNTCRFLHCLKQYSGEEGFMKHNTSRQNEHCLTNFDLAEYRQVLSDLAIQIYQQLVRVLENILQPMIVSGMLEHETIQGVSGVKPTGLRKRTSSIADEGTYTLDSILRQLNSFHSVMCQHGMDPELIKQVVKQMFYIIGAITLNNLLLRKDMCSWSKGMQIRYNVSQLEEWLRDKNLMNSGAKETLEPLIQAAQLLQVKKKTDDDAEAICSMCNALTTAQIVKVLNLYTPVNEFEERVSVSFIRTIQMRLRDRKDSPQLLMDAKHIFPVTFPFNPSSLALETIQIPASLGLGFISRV
# PPP2R1B, P30154, UniProt P30154, whole entry: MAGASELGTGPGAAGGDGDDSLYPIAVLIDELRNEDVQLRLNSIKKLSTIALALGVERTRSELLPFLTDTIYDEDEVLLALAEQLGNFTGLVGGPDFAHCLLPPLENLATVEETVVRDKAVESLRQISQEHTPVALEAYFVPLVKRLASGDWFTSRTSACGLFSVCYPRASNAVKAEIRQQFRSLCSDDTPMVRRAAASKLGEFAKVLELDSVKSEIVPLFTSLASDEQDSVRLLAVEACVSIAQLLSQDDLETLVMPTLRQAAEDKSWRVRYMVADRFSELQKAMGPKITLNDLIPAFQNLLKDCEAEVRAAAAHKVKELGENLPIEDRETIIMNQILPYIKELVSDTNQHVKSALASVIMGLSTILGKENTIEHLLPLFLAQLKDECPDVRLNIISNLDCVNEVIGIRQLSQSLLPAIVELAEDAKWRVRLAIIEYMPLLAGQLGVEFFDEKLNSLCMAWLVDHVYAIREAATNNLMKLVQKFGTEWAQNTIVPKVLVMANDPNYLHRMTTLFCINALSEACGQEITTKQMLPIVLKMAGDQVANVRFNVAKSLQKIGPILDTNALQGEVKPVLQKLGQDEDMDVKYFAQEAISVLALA
# SNRPC, P09234, UniProt P09234, whole entry: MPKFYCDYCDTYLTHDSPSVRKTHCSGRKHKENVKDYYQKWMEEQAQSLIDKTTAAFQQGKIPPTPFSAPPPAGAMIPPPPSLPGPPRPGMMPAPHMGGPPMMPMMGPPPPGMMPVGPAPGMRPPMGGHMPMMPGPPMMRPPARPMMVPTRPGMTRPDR
# SRPK1, Q96SB4, UniProt Q96SB4, whole entry: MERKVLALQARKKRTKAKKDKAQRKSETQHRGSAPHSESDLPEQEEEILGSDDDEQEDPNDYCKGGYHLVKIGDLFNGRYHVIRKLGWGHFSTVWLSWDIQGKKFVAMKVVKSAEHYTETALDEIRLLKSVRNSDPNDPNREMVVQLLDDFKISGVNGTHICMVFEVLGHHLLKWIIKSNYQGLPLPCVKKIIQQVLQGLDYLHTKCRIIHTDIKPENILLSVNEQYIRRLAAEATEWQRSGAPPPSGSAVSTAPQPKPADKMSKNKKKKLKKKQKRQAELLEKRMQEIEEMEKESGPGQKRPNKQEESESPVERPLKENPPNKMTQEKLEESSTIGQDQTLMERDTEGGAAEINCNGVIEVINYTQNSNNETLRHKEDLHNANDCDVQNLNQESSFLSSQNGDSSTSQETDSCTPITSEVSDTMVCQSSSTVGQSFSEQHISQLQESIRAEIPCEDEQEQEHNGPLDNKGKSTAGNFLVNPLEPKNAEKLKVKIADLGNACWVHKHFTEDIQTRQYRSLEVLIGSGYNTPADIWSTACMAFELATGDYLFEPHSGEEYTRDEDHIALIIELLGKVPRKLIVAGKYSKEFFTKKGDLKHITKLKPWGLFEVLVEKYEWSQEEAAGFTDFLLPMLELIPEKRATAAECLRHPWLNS
# ATP6V1A, P38606, UniProt P38606, whole entry: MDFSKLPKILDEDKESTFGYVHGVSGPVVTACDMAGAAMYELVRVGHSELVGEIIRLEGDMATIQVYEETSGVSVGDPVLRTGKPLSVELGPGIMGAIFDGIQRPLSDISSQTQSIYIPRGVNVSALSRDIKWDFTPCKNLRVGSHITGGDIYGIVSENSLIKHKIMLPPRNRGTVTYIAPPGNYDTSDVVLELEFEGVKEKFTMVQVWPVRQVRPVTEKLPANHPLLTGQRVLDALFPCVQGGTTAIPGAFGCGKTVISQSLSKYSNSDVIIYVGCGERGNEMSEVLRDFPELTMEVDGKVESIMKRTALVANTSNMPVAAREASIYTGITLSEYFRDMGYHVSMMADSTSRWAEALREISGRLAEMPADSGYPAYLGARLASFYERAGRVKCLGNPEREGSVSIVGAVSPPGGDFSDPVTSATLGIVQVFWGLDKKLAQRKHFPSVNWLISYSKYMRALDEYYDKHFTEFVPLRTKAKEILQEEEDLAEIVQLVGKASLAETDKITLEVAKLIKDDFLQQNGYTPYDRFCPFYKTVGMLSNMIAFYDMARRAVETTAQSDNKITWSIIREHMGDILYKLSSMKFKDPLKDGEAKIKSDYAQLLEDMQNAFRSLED
# EIF3G, O75821, UniProt O75821, whole entry: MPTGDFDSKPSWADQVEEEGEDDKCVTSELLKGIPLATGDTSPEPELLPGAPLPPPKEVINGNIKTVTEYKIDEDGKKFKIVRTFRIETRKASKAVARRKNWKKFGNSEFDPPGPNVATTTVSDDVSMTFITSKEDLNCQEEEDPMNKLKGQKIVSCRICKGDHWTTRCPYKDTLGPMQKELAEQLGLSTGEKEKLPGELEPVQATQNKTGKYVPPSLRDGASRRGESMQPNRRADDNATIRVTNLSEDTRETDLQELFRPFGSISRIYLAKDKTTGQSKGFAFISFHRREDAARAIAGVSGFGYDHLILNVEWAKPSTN
# PSMD11, O00231, UniProt O00231, whole entry: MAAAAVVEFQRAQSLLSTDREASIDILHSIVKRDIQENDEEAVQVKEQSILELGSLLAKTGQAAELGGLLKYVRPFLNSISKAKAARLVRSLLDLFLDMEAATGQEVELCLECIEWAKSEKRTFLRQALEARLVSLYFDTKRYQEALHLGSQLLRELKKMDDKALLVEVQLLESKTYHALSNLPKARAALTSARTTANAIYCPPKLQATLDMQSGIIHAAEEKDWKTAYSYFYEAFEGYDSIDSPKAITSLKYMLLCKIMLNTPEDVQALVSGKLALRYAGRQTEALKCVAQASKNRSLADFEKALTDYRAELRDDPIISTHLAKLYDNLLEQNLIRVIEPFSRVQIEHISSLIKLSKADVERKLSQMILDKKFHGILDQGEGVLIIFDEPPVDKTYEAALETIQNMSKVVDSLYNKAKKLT
# STAT3, P40763, UniProt P40763, whole entry: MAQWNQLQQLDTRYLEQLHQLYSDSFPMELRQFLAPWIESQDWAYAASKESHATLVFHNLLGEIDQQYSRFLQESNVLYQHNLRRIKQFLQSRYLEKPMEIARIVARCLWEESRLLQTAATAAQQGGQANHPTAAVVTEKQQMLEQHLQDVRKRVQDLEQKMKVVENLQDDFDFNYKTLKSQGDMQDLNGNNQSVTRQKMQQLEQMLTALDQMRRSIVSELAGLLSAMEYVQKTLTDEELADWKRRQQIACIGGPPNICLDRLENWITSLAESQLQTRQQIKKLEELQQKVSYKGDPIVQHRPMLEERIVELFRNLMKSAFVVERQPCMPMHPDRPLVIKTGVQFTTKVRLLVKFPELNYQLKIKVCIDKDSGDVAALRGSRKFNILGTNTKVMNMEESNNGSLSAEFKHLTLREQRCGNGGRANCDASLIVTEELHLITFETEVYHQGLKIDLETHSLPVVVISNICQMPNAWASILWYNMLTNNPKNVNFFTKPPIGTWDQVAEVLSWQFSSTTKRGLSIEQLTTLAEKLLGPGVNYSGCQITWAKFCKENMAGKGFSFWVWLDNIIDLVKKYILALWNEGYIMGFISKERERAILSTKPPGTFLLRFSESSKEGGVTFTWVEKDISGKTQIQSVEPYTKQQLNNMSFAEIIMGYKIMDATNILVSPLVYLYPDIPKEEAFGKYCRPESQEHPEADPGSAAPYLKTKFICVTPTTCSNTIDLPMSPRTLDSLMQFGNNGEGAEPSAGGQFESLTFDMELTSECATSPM
# Some of the results follow. The list holds hits alone, and they repeat only in part.
# B1: RP11-432J24.5_2 (peptide)
# chain: WINVSTWASWVSRTS
# B2: TUG1 (peptide)
# chain: NGRAVDRAIGWRLFL
# Assays:
# Test in all cases: PRISMA enrichment of interactor (LFQ) in peptide spot vs all other peptide spots (log2 fold change); higher = stronger / more specific binding of the interactor to the peptide
# ALDH9A1, P49189 = target: ALDH9A1, P49189
# Procedure: (§1)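 PRISMA: 15-aa overlapping tiles (offset 8 aa) of 60 microproteins, plus SOS1/GLUT1 control peptides, were spot-synthesized on cellulose membranes in triplicate. Membranes were incubated with benzonase-treated HEK293T lysate, and bound proteins were identified by LC-MS/MS with LFQ. Enrichment is the log2 fold change of each protein in one spot versus all other spots. Only interactors passing the significance cutoff are listed.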
# AMMECR1, Q9Y4X0 = target: AMMECR1, Q9Y4X0
# Procedure: as §1
# BPTF, Q12830 = target: BPTF, Q12830
# Procedure: as §1
# CALM3, P0DP23 = target: CALM3, P0DP23
# Procedure: as §1
# CBX2, Q14781 = target: CBX2, Q14781
# Procedure: as §1
# CNOT2, Q9NZN8 = target: CNOT2, Q9NZN8
# Procedure: as §1
# COPG2, Q9UBF2 = target: COPG2, Q9UBF2
# Procedure: as §1
# COPS4, Q9BT78 = target: COPS4, Q9BT78
# Procedure: as §1
# DNAJB4, Q9UDY4 = target: DNAJB4, Q9UDY4
# Procedure: as §1
# EMG1, Q92979 = target: EMG1, Q92979
# Procedure: as §1
# FMR1, Q06787 = target: FMR1, Q06787
# Procedure: as §1
# IWS1, Q96ST2 = target: IWS1, Q96ST2
# Procedure: as §1
# LIN7C, Q9NUP9 = target: LIN7C, Q9NUP9
# Procedure: as §1
# MRPL27, Q9P0M9 = target: MRPL27, Q9P0M9
# Procedure: as §1
# MRPS25, P82663 = target: MRPS25, P82663
# Procedure: as §1
# MYO5A, Q9Y4I1 = target: MYO5A, Q9Y4I1
# Procedure: as §1
# NCOA5, Q9HCD5 = target: NCOA5, Q9HCD5
# Procedure: as §1
# PCLAF, Q15004 = target: PCLAF, Q15004
# Procedure: as §1
# PDIA4, P13667 = target: PDIA4, P13667
# Procedure: as §1
# PGD, P52209 = target: PGD, P52209
# Procedure: as §1
# PJA2, O43164 = target: PJA2, O43164
# Procedure: as §1
# POLA1, P09884 = target: POLA1, P09884
# Procedure: as §1
# PPP2R1B, P30154 = target: PPP2R1B, P30154
# Procedure: as §1
# PRIM1, P49642 = target: PRIM1, P49642
# Procedure: as §1
# PSMD4, P55036 = target: PSMD4, P55036
# Procedure: as §1
# PUS1, Q9Y606 = target: PUS1, Q9Y606
# Procedure: as §1
# RAB2A, P61019 = target: RAB2A, P61019
# Procedure: as §1
# SNRPC, P09234 = target: SNRPC, P09234
# Procedure: as §1
# SRPK1, Q96SB4 = target: SRPK1, Q96SB4
# Procedure: as §1
# STMN3, Q9NZ72 = target: STMN3, Q9NZ72
# Procedure: as §1
# TARS, P26639 = target: TARS, P26639
# Procedure: as §1
# TMEM41A, Q96HV5 = target: TMEM41A, Q96HV5
# Procedure: as §1
# TRA2A, Q13595 = target: TRA2A, Q13595
# Procedure: as §1
# TRA2B, P62995 = target: TRA2B, P62995
# Procedure: as §1
# UBAC2, Q8NBM4 = target: UBAC2, Q8NBM4
# Procedure: as §1
# YWHAG, P61981 = target: YWHAG, P61981
# Procedure: as §1
# ANKHD1, Q8IWZ3 = target: ANKHD1, Q8IWZ3
# Procedure: as §1
# ASCC2, Q9H1I8 = target: ASCC2, Q9H1I8
# Procedure: as §1
# ATP6V1A, P38606 = target: ATP6V1A, P38606
# Procedure: as §1
# CCDC77, Q9BR77 = target: CCDC77, Q9BR77
# Procedure: as §1
# CLASRP, Q8N2M8 = target: CLASRP, Q8N2M8
# Procedure: as §1
# DDX42, Q86XP3 = target: DDX42, Q86XP3
# Procedure: as §1
# EIF3G, O75821 = target: EIF3G, O75821
# Procedure: as §1
# NUP54, Q7Z3B4 = target: NUP54, Q7Z3B4
# Procedure: as §1
# PSMD11, O00231 = target: PSMD11, O00231
# Procedure: as §1
# PTPN1, P18031 = target: PTPN1, P18031
# Procedure: as §1
# RPP38, P78345 = target: RPP38, P78345
# Procedure: as §1
# SHMT1, P34896 = target: SHMT1, P34896
# Procedure: as §1
# SNRNP200, O75643 = target: SNRNP200, O75643
# Procedure: as §1
# STAT3, P40763 = target: STAT3, P40763
# Procedure: as §1
# ZNF483, Q8TF39 = target: ZNF483, Q8TF39
# Procedure: as §1
# ZNF845, Q96IR2 = target: ZNF845, Q96IR2
# Procedure: as §1
binder,measurement,setting,value
B1,PRISMA enrichment of interactor (log2),"ALDH9A1, P49189",5.81
same,PRISMA enrichment of interactor (log2),"AMMECR1, Q9Y4X0",5.62
same,PRISMA enrichment of interactor (log2),"BPTF, Q12830",3.95
same,PRISMA enrichment of interactor (log2),"CALM3, P0DP23",4.89
same,PRISMA enrichment of interactor (log2),"CBX2, Q14781",5.64
same,PRISMA enrichment of interactor (log2),"CNOT2, Q9NZN8",5.86
same,PRISMA enrichment of interactor (log2),"COPG2, Q9UBF2",4
same,PRISMA enrichment of interactor (log2),"COPS4, Q9BT78",4.28
same,PRISMA enrichment of interactor (log2),"DNAJB4, Q9UDY4",7.33
same,PRISMA enrichment of interactor (log2),"EMG1, Q92979",5.7
same,PRISMA enrichment of interactor (log2),"FMR1, Q06787",4.34
same,PRISMA enrichment of interactor (log2),"IWS1, Q96ST2",7.07
same,PRISMA enrichment of interactor (log2),"LIN7C, Q9NUP9",4.4
same,PRISMA enrichment of interactor (log2),"MRPL27, Q9P0M9",9.16
same,PRISMA enrichment of interactor (log2),"MRPS25, P82663",4.45
same,PRISMA enrichment of interactor (log2),"MYO5A, Q9Y4I1",6.54
same,PRISMA enrichment of interactor (log2),"NCOA5, Q9HCD5",4.07
same,PRISMA enrichment of interactor (log2),"PCLAF, Q15004",4.98
same,PRISMA enrichment of interactor (log2),"PDIA4, P13667",5.36
same,PRISMA enrichment of interactor (log2),"PGD, P52209",6.48
same,PRISMA enrichment of interactor (log2),"PJA2, O43164",4.29
same,PRISMA enrichment of interactor (log2),"POLA1, P09884",4.75
same,PRISMA enrichment of interactor (log2),"PPP2R1B, P30154",4.02
same,PRISMA enrichment of interactor (log2),"PRIM1, P49642",6.4
same,PRISMA enrichment of interactor (log2),"PSMD4, P55036",5.8
same,PRISMA enrichment of interactor (log2),"PUS1, Q9Y606",4.42
same,PRISMA enrichment of interactor (log2),"RAB2A, P61019",4.23
same,PRISMA enrichment of interactor (log2),"SNRPC, P09234",5.59
same,PRISMA enrichment of interactor (log2),"SRPK1, Q96SB4",5.54
same,PRISMA enrichment of interactor (log2),"STMN3, Q9NZ72",3.94
same,PRISMA enrichment of interactor (log2),"TARS, P26639",6.05
same,PRISMA enrichment of interactor (log2),"TMEM41A, Q96HV5",4.45
same,PRISMA enrichment of interactor (log2),"TRA2A, Q13595",4.54
same,PRISMA enrichment of interactor (log2),"TRA2B, P62995",5.61
same,PRISMA enrichment of interactor (log2),"UBAC2, Q8NBM4",4.19
same,PRISMA enrichment of interactor (log2),"YWHAG, P61981",5.05
B2,PRISMA enrichment of interactor (log2),"ALDH9A1, P49189",9.74
same,PRISMA enrichment of interactor (log2),"ANKHD1, Q8IWZ3",5.65
same,PRISMA enrichment of interactor (log2),"ASCC2, Q9H1I8",5.02
same,PRISMA enrichment of interactor (log2),"ATP6V1A, P38606",7.91
same,PRISMA enrichment of interactor (log2),"CCDC77, Q9BR77",4.07
same,PRISMA enrichment of interactor (log2),"CLASRP, Q8N2M8",3.99
same,PRISMA enrichment of interactor (log2),"DDX42, Q86XP3",8.14
same,PRISMA enrichment of interactor (log2),"EIF3G, O75821",6.94
same,PRISMA enrichment of interactor (log2),"NUP54, Q7Z3B4",4.39
same,PRISMA enrichment of interactor (log2),"PSMD11, O00231",4.99
same,PRISMA enrichment of interactor (log2),"PTPN1, P18031",4.92
same,PRISMA enrichment of interactor (log2),"RPP38, P78345",4.88
same,PRISMA enrichment of interactor (log2),"SHMT1, P34896",6.28
same,PRISMA enrichment of interactor (log2),"SNRNP200, O75643",4.77
same,PRISMA enrichment of interactor (log2),"STAT3, P40763",4.26
same,PRISMA enrichment of interactor (log2),"ZNF483, Q8TF39",4.45
same,PRISMA enrichment of interactor (log2),"ZNF845, Q96IR2",4.51

# Three entries picked at random from those above:
binder,measurement,setting,value
B1,PRISMA enrichment of interactor (log2),"MYO5A, Q9Y4I1",6.54
same,PRISMA enrichment of interactor (log2),"CNOT2, Q9NZN8",5.86
same,PRISMA enrichment of interactor (log2),"BPTF, Q12830",3.95
